The results in this text go back to the supplement of paper PMC11098740.

Chains of the proteins cited; added tags and fusions are not shown.
UniProt O14980, whole entry: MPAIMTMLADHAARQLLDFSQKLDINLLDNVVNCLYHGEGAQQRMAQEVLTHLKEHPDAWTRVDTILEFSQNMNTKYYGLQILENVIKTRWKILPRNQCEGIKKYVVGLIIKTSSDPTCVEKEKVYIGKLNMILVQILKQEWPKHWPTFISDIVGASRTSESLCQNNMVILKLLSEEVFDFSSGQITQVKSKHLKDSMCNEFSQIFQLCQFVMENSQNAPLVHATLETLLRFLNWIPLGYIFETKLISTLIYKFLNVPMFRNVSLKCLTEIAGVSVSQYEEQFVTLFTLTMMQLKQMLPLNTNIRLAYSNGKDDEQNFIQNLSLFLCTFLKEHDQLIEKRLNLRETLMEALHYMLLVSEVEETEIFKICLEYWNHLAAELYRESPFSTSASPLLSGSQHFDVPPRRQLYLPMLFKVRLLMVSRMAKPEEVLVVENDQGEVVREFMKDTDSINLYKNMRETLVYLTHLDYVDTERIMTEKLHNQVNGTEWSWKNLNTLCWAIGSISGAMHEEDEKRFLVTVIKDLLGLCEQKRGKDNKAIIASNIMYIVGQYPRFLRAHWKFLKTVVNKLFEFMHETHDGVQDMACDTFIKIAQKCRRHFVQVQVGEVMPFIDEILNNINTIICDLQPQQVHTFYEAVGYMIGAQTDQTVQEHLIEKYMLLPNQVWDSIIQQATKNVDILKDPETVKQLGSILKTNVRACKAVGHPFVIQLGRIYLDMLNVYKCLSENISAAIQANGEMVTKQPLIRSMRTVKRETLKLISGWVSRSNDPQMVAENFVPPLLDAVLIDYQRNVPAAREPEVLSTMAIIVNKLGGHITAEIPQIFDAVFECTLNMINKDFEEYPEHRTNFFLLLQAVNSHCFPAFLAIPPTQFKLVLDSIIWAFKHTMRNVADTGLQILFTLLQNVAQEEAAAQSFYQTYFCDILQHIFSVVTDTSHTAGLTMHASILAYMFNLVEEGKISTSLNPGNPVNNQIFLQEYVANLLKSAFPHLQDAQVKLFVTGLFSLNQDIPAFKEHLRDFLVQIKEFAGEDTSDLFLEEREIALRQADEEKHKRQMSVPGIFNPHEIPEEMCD

Counter-ions that a name gives are not always drawn. ± gives the standard deviation of the averaged measurements. The list shows a part of the results. Single values are uncertain, as repeats are few or missing.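 Pooled together, 41 HAP1 clones carry intronic fluorescent tags on 61 cancer-associated proteins, and each clone is recognized by its imaging pattern. Measurements are benchmarked against DMSO-treated control wells. dBET6, a BRD4 degrader, served as the positive control.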

For the experiment, the target named is XPO1 (intron 15 mScarlet tag, HAP1) (UniProt O14980). Nature of the experiment: XPO1 fluorescence intensity change vs DMSO (log2 fold change); higher = more XPO1 protein. The note with it: 6 h.
For the molecule `C#C[C@]1(O)CC[C@H]2[C@@H]3CCC4=CC(=O)CC[C@@H]4[C@H]3CC[C@@]21CC` [Levonorgestrel] (9.99976 µM), the “XPO1 fluorescence intensity change (log2)” value was determined as 0.103.

With `COc1c(C)c2c(c(O)c1C/C=C(\C)CCC(=O)O)C(=O)OC2` [Mycophenolic Acid] (10 µM), the “XPO1 fluorescence intensity change (log2)” value was 0.132.

On to `Cc1cc2cc3c(C)cc(=O)oc3c(C)c2o1` [Trioxsalen] (10.0007 µM), for which the “XPO1 fluorescence intensity change (log2)” value came to 0.0928.

Consider `O=C(CCCCCCC(=O)Nc1ccccc1)NO` [Vorinostat] (3.889 µM), for which the “XPO1 fluorescence intensity change (log2)” value is -0.0443.

Regarding `COc1ccc(C[C@@H]2c3cc(OC)c(OC)cc3CC[N@+]2(C)CCC(=O)OCCCCCOC(=O)CC[N@@+]2(C)CCc3cc(OC)c(OC)cc3[C@H]2Cc2ccc(OC)c(OC)c2)cc1OC` [Cisatracurium Besylate] (10 µM), the “XPO1 fluorescence intensity change (log2)” value was -0.0179.

`COc1cc(N)c(Cl)cc1C(=O)NC1CCN(CCCOc2ccc(F)cc2)CC1OC` (centres undefined) [Cisapride] (10.00071305 µM): the “XPO1 fluorescence intensity change (log2)” value is -0.0084.

As to `CNC(=O)c1ccc(N2C(=S)N(c3ccc(C#N)c(C(F)(F)F)c3)C(=O)C2(C)C)cc1F` [Enzalutamide] (20 µM), the “XPO1 fluorescence intensity change (log2)” value was -0.113.

Regarding `S=c1nc[nH]c2nc[nH]c12` [6-Mercaptopurine] (10.0013 µM), the “XPO1 fluorescence intensity change (log2)” value worked out at 0.025.

Regarding `CC(C)(C)C(=O)OCC(=O)[C@H]1CC[C@H]2[C@@H]3CCC4=CC(=O)CC[C@]4(C)[C@H]3CC[C@]12C` [Desoxycorticosterone Pivalate] (10.0000892 µM), the “XPO1 fluorescence intensity change (log2)” value is -0.13.

For the molecule `Cc1[nH]c(=O)c(C#N)cc1-c1ccncc1` [Milrinone] (10.0021 µM), the “XPO1 fluorescence intensity change (log2)” value was -0.154.

For `CN(C)CCCC1(c2ccc(F)cc2)OCc2cc(C#N)ccc21` (centres undefined) [Citalopram] (10 µM), the “XPO1 fluorescence intensity change (log2)” value was -0.0686.

As to `C1CNCCN1` [Piperazine Hexahydrate] (10.008 µM), the “XPO1 fluorescence intensity change (log2)” value was found to be 0.151.

For the molecule `C#CCN(C)Cc1ccccc1` [Pargyline] (10.0004 µM), the “XPO1 fluorescence intensity change (log2)” value stood at 0.0545.

As to `CCCCNc1cc(C(=O)O)cc(S(N)(=O)=O)c1Oc1ccccc1` [Bumetanide] (10.00031521 µM), the “XPO1 fluorescence intensity change (log2)” value worked out at 0.0411.

As for `CC(N/C(=N\C#N)Nc1ccncc1)C(C)(C)C` (centres undefined) [Pinacidil] (10 µM), the “XPO1 fluorescence intensity change (log2)” value came out at 0.107.

Turning to `Cc1nc(Nc2ncc(C(=O)Nc3c(C)cccc3Cl)s2)cc(N2CCN(CCO)CC2)n1` [Dasatinib] (0.0213961 µM), the “XPO1 fluorescence intensity change (log2)” value turned out to be 0.0371.

As to `Cc1[nH]c2ccccc2c1CCNCc1ccc(/C=C/C(=O)NO)cc1` [Panobinostat] (20 µM), the “XPO1 fluorescence intensity change (log2)” value is 0.0883.

As to `NC[C@H]1CC[C@H](C(=O)O)CC1` [Tranexamic Acid] (10 µM), the “XPO1 fluorescence intensity change (log2)” value came out at 0.106.

With `CC[C@@H](CO)NCCN[C@@H](CC)CO` [Ethambutol] (10 µM), the “XPO1 fluorescence intensity change (log2)” value was 0.24.

With `CN(CCOc1ccc(CC2SC(=O)NC2=O)cc1)c1ccccn1` (centres undefined) [Rosiglitazone] (10.0005 µM), the “XPO1 fluorescence intensity change (log2)” value amounted to 0.124.

In the case of `Cc1ccccc1C(=O)Nc1ccc(C(=O)N2CCCC(O)c3cc(Cl)ccc32)c(C)c1` (centres undefined) [Tolvaptan] (10 µM), the “XPO1 fluorescence intensity change (log2)” value came to 0.201.

Take `Cc1ccc(C(=O)Nc2ccc(CN3CCN(C)CC3)c(C(F)(F)F)c2)cc1C#Cc1cnc2cccnn12` [Ponatinib] (2.5795 µM): the “XPO1 fluorescence intensity change (log2)” value is 0.039.

Turning to `O=NN(CCCl)C(=O)NCCCl` [Carmustine] (20 µM), the “XPO1 fluorescence intensity change (log2)” value was -0.0281.

Regarding `C[C@H]1[C@@H](O)O[C@@H]2O[C@@]3(C)CC[C@H]4[C@H](C)CC[C@@H]1[C@@]24OO3` [Dihydroartemisinin] (10 µM), the “XPO1 fluorescence intensity change (log2)” value amounted to 0.0122.

As for `CC(C)C[C@H](NC(=O)[C@H](CCc1ccccc1)NC(=O)CN1CCOCC1)C(=O)N[C@@H](Cc1ccccc1)C(=O)N[C@@H](CC(C)C)C(=O)[C@@]1(C)CO1` [Carfilzomib] (0.00117 µM), the “XPO1 fluorescence intensity change (log2)” value was -0.193 ± 0.3.

Consider `O.O.O.O.O=C([O-])CC(O)(CC(=O)[O-])C(=O)[O-].[Li+].[Li+].[Li+]` [Lithium Citrate] (10 µM), for which the “XPO1 fluorescence intensity change (log2)” value is 0.0886.

With `CNCCCC12CCC(c3ccccc31)c1ccccc12` [Maprotiline] (11.3144 µM), the “XPO1 fluorescence intensity change (log2)” value stood at 0.0329.

For `C[C@](N)(Cc1ccc(O)cc1)C(=O)O` [Metyrosine] (10 µM), the “XPO1 fluorescence intensity change (log2)” value is -0.00284.

As for `CC[N+](C)(CC)CCOC(=O)C(O)(c1ccccc1)C1CCCCC1` (centres undefined) [Oxyphenonium Bromide] (9.99928 µM), the “XPO1 fluorescence intensity change (log2)” value was 0.276.

In the case of `CCN(CC)C(=S)SSC(=S)N(CC)CC` [Disulfiram] (10.03611718 µM), the “XPO1 fluorescence intensity change (log2)” value was -0.182.

With `N=C(N)NC(=O)c1nc(Cl)c(N)nc1N` [Amiloride] (9.99961 µM), the “XPO1 fluorescence intensity change (log2)” value came out at 0.0982.

With `CC[C@@]1(O)C(=O)OCc2c1cc1n(c2=O)Cc2cc3c(CN(C)C)c(O)ccc3nc2-1` [Topotecan hydrochloride hydrate] (20 µM), the “XPO1 fluorescence intensity change (log2)” value is -0.209.

`NNC(=O)c1ccncc1` [Isoniazid] (10 µM): the “XPO1 fluorescence intensity change (log2)” value was 0.145.

Regarding `Cc1[nH]nc2c1C(c1cc(CO)cc(-c3ccccc3)c1)(C(C)C)C(C#N)=C(N)O2` (centres undefined) (10 µM), the “XPO1 fluorescence intensity change (log2)” value came to 0.206.

For the molecule `CCC(c1ccccc1)c1c(O)c2ccccc2oc1=O` (centres undefined) [Phenprocoumon] (10 µM), the “XPO1 fluorescence intensity change (log2)” value came to 0.0717.

For `c1cnc2cc3c(cc2n1)[C@@H]1CNC[C@H]3C1` [Varenicline] (10 µM), the “XPO1 fluorescence intensity change (log2)” value is -0.0245.

In the case of `NC(=O)c1ncn([C@@H]2O[C@H](COP(=O)(O)OP(=O)(O)OP(=O)(O)O)[C@@H](O)[C@H]2O)n1` [Ribavirin 5'-Triphosphate] (10 µM), the “XPO1 fluorescence intensity change (log2)” value stood at 0.00902.

As to `NC[C@@H]1O[C@H](O[C@H]2[C@@H](O)[C@H](O[C@@H]3[C@@H](O)[C@H](N)C[C@H](N)[C@H]3O[C@H]3O[C@H](CO)[C@@H](O)[C@H](O)[C@H]3N)O[C@@H]2CO)[C@H](N)[C@@H](O)[C@@H]1O` [Paromomycin] (10 µM), the “XPO1 fluorescence intensity change (log2)” value is -0.109.

For the molecule `OC(CCCN1CCCCC1)(c1ccccc1)c1ccccc1` [Diphenidol] (9.99988 µM), the “XPO1 fluorescence intensity change (log2)” value was 0.0583.
